Source: PubChem BioAssay AID2662 (National Center for Advancing Translational Sciences (NCATS), 2010)
The whole screen tested about 290,000 compounds, of which about 110 (0.038%) were called active. Inconclusive means that the source gave no clear call. Such entries were picked first, then a sample of the others. The call rests on the fitted dose curve; in most records, active means well fitted inhibition curve with a large enough effect in the polarisation, with a control signal flat (not every such curve was filed as active); inconclusive means small, poorly fitted or top-dose-only effect, or effect the other way, or a change in a side signal; inactive means no such curve, though single readings can be large or run the other way; the % refers to the polarisation. Where the call is inconclusive, the potency comes from a doubtful curve fit. A note “side channel” means that the fit belongs to a control or component signal, not to the main read-out.

Amino acid sequences for entries named in this document (tags omitted).
UniProt Q03164, whole entry, looked up: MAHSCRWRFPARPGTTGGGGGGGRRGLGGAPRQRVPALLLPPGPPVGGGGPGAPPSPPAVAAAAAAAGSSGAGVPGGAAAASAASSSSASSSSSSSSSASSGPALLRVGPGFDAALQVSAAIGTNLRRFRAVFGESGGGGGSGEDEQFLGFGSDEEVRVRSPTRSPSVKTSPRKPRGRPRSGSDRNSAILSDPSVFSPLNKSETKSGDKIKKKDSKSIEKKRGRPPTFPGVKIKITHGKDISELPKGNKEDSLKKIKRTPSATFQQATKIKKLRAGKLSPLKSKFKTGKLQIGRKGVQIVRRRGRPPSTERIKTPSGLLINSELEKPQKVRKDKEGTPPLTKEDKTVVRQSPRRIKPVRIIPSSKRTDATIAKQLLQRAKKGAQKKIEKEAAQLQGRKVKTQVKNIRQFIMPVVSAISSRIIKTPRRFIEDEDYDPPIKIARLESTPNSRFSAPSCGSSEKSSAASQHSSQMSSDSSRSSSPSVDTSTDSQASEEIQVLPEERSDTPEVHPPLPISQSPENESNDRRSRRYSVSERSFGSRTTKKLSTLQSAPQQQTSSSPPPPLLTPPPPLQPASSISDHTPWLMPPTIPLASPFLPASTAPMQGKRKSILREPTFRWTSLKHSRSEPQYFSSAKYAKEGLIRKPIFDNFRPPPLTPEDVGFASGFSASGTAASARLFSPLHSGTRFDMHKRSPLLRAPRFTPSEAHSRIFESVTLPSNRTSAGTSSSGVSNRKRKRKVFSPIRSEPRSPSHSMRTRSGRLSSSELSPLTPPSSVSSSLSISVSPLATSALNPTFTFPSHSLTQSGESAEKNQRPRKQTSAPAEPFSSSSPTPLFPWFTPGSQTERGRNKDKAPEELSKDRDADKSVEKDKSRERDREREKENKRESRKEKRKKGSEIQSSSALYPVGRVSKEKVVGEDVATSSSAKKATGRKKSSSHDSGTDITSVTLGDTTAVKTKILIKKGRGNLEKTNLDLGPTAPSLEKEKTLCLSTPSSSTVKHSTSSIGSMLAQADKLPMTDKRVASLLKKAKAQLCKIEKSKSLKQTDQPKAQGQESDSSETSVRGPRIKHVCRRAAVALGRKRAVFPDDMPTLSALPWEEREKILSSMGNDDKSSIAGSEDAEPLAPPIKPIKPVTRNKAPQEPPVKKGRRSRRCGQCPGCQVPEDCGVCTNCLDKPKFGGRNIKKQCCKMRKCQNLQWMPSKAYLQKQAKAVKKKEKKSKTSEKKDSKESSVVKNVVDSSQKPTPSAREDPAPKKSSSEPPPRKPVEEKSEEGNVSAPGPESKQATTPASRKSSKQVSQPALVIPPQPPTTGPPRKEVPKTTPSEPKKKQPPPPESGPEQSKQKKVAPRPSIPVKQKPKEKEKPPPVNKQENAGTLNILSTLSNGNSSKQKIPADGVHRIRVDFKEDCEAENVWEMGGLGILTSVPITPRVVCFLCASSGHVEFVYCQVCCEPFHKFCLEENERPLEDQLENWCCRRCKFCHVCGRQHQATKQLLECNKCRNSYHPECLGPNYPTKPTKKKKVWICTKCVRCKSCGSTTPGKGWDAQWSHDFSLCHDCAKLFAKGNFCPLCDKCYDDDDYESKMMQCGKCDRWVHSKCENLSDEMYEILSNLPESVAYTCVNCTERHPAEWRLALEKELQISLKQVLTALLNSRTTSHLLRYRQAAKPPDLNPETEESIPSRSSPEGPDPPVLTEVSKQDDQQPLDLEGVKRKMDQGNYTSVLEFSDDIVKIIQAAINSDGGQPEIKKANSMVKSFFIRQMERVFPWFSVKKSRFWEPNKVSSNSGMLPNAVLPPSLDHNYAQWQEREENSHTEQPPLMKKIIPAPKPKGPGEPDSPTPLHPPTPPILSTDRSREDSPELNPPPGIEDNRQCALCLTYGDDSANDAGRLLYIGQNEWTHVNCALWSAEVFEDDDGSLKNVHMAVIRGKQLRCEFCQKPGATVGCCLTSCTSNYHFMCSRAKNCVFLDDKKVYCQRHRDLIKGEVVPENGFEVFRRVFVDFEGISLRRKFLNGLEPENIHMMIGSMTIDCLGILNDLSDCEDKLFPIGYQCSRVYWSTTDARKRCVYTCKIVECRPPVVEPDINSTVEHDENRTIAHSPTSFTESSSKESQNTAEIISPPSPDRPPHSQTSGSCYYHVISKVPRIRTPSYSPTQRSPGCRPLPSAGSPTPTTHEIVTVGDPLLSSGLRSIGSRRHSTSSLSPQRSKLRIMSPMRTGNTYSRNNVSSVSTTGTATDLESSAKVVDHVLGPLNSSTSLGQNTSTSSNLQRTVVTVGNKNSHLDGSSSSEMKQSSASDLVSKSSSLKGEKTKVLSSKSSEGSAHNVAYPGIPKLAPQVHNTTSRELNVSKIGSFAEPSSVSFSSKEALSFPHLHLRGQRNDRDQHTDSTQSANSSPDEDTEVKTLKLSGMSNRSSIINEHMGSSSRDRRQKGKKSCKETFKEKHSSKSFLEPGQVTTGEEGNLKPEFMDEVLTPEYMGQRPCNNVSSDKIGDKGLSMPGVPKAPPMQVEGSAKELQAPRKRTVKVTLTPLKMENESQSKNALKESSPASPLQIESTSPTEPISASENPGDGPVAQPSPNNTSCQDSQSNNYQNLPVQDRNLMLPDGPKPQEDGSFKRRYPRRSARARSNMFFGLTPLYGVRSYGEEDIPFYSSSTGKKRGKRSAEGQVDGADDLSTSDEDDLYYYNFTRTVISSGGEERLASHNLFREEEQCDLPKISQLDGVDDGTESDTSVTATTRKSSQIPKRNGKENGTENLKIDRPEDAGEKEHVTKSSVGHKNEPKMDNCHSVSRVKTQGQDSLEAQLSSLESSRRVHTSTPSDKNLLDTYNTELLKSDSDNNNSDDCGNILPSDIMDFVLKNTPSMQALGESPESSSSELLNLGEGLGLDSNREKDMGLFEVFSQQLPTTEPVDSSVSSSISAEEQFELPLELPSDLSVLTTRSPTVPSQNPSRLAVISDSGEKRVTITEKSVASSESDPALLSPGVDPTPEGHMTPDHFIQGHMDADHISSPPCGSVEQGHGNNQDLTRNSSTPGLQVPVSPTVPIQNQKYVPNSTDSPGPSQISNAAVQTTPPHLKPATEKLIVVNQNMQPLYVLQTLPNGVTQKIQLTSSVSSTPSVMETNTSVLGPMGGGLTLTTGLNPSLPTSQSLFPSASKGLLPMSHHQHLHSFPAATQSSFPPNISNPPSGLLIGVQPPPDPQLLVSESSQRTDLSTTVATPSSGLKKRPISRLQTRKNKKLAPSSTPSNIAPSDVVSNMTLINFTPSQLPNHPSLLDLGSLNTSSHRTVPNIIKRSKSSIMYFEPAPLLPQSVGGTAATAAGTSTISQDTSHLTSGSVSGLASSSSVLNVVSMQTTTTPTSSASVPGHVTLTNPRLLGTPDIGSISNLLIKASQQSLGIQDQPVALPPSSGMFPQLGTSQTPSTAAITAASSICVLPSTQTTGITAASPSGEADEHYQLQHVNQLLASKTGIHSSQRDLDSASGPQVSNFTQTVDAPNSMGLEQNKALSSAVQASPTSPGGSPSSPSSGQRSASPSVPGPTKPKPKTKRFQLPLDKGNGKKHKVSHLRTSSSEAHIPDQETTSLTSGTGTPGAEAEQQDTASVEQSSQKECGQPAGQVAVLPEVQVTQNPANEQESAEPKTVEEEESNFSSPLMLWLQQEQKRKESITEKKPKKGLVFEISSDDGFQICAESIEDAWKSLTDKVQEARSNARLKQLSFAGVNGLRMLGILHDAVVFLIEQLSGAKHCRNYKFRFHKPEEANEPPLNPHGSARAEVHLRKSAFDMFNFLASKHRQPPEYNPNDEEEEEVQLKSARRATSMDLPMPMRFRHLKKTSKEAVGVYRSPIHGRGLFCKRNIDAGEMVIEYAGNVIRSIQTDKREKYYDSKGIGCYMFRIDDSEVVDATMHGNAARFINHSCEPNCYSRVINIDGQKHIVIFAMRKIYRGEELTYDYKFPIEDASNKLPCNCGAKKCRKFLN

molecular target: Histone-lysine N-methyltransferase 2A (Homo sapiens) (UniProt Q03164); assay: qHTS Fluorescence Polarization Assay for Inhibitors of MLL CXXC domain - DNA interaction; details: MLL-CXXC / FITC-HOXA9 DNA fluorescence polarization; series mostly up to 115 µM
Summary of the method: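 Steps: dispense CXXC domain solution (7 uM) → pin compounds or unlabeled HOX-A9 DNA control → 5 min ambient → add FLSN-HOX-A9 solution (50 nM) → spin → 30 min ambient → fluorescence polarization. Tris pH 7.5/NaCl/DTT/BSA buffer.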
Potency means the concentration at half of the fitted maximal effect.

**Q.** Which Potency does the source give for `O=C(O)/C=C/C(=O)Nc1ccc(C2(c3ccc(NC(=O)/C=C/C(=O)O)cc3)c3ccccc3-c3ccccc32)cc1` here?
**A.** Its Potency is inconclusive: 5.01 µM [inhibitor, full curve, poor fit].

**Q.** For `O=C(Nc1ccccc1C(F)(F)F)c1ncn[nH]1`, which Potency is on record?
**A.** The Potency was “inactive”.

**Q.** With `CN(C)c1cccc(C(=O)NCCCSc2ccccc2)c1` as the molecule, how does the Potency read?
**A.** Its Potency is inconclusive: 12.6 µM [fluorescent, side channel, single point].

**Q.** `CC(=O)NN1C(=O)/C(=C/c2ccc(Br)o2)SC1=S` was tested. Which Potency did it give?
**A.** Its Potency is inconclusive: 31.6 µM [fluorescent, side channel, partial curve].

**Q.** Which Potency does the source give for `O=[N+]([O-])c1cccc(/C=N/n2c(C3CCCCC3)n[nH]c2=S)c1` here?
**A.** The Potency was inconclusive: 70.8 µM [fluorescent, side channel, single point].

**Q.** With `COc1ccc(NS(=O)(=O)c2cc(NC(=O)c3ccc(C)o3)ccc2N2CCCCC2)cc1` as the molecule, how does the Potency read?
**A.** The Potency was inconclusive: 14.1 µM [quencher, side channel, single point].

**Q.** For `Cn1c(=O)c(Nc2ccc(Cl)cc2)c2c3c(cccc31)C(=O)c1ccccc1-2`, which Potency is on record?
**A.** Its Potency is inconclusive: 35.5 µM [fluorescent, side channel, partial curve].

**Q.** `O=C(COC(=O)c1cc(-c2cccs2)nc2ccccc12)NCc1ccco1` was tested. Which Potency did it give?
**A.** The Potency was “inactive”.

**Q.** Which Potency does the source give for `O=C(Nc1ccc(Br)cc1)c1ccc(Br)c(S(=O)(=O)Nc2cccnc2)c1` here?
**A.** Its Potency is “inactive”.

**Q.** How did the Potency turn out when `Cc1ccc(C(c2cc(Cl)c3cccnc3c2O)N2CCN(C)CC2)cc1` (configuration not stated) was run?
**A.** The Potency was “inactive”.

**Q.** How did the Potency turn out when `COc1ccc2cc(CCNC(=O)c3ccco3)c(=O)[nH]c2c1` was run?
**A.** Its Potency is inconclusive: 8.91 µM [fluorescent, side channel, single point].

**Q.** Which Potency does the source give for `N#C/C(=C\c1coc2ccc(O)cc2c1=O)C(=O)Nc1nc2ccccc2s1` here?
**A.** Its Potency is inconclusive: 5.62 µM [fluorescent, side channel, full curve].

**Q.** How did the Potency turn out when `Cc1ccc(-n2c(=O)c3cc4c(=O)n(-c5ccc(C)c(C)c5)c(=O)c4c(C(=O)c4ccc(C(=O)O)cc4)c3c2=O)cc1C` was run?
**A.** Its Potency is inconclusive: 35.5 µM [inhibitor, partial curve].

**Q.** For `COc1ccc(C2=Nn3c(nnc3-c3ccccc3OC)SC2)cc1OC`, which Potency is on record?
**A.** Its Potency is “inactive”.

**Q.** For `CCCCCc1c2c(cc(O)c1C(=O)O)OC(=O)c1c(cc(OC)cc1C(=O)CCCC)O2`, which Potency is on record?
**A.** The Potency was inconclusive: 39.8 µM [inhibitor, partial curve].

**Q.** For `CCOC(=O)CON1C(=O)C(=O)N(OCC(=O)OCC)C2CCCCC21` (configuration not stated), which Potency is on record?
**A.** The Potency was inconclusive: 14.1 µM [inhibitor, single point].

**Q.** Which Potency does the source give for `COc1ccccc1OCCOc1ccc(/C=C2\C(=N)N3N=C(C)SC3=NC2=O)cc1` here?
**A.** The Potency was inconclusive: 14.1 µM [inhibitor, partial curve].

**Q.** `Cc1ccccc1NC(=O)Cc1nc(COC(=O)C(C)C)cs1` was tested. Which Potency did it give?
**A.** The Potency was inconclusive: 7.94 µM [fluorescent, side channel, full curve].

**Q.** How did the Potency turn out when `Cc1ccc(C)c(CN2C(=O)C3CCCN3c3ccc(S(=O)(=O)N4CCOCC4)cc32)c1` (configuration not stated) was run?
**A.** The Potency was “inactive”.

**Q.** For `CN(C)CCNC(=S)Nc1ccc(F)c(F)c1F`, which Potency is on record?
**A.** The Potency was inconclusive: 14.1 µM [fluorescent, side channel, single point].

**Q.** With `O=C(OCC(=O)c1ccc[nH]1)c1ccccc1` as the molecule, how does the Potency read?
**A.** The Potency was “inactive”.

**Q.** `CCCC(NC(=O)Cc1c(C)c2cc3c(C)c(C)oc3c(C)c2oc1=O)C(=O)N[C@@H](Cc1ccccc1)C(=O)O` (some centres not stated) was tested. Which Potency did it give?
**A.** Its Potency is inconclusive: 44.7 µM [inhibitor, partial curve].

**Q.** For `CC(=O)Nc1cc(C(=O)c2ccccc2)ccc1N1CCOCC1`, which Potency is on record?
**A.** Its Potency is “inactive”.

**Q.** `COC(=O)c1ccc2c(=O)n(-c3ccccc3F)c(=S)[nH]c2c1` was tested. Which Potency did it give?
**A.** The Potency was inconclusive: 10 µM [fluorescent, side channel, full curve].

**Q.** `CCOc1ccc2nc(N3C(=O)CNC3=S)sc2c1` was tested. Which Potency did it give?
**A.** Its Potency is “inactive”.

**Q.** `O=C1N=c2ccccc2=C1c1[nH]c(=S)[nH]c1O` was tested. Which Potency did it give?
**A.** Its Potency is inconclusive: 31.6 µM [quencher, side channel, single point].

**Q.** `COc1ccc(C)cc1NC(=O)C(OC(=O)c1ccc(Cl)c(S(=O)(=O)N(C)c2ccccc2)c1)c1ccccc1` (configuration not stated) was tested. Which Potency did it give?
**A.** Its Potency is inconclusive: 70.8 µM [fluorescent, side channel, single point].

**Q.** Which Potency does the source give for `COC(=O)c1cc(C(=O)c2ccc(Cl)cc2)n2c(=O)/c(=C\N(C)C)sc12` here?
**A.** Its Potency is inconclusive: 35.5 µM [fluorescent, side channel, single point].

**Q.** How did the Potency turn out when `Cc1ccccc1CN(C)CCc1ccccn1` was run?
**A.** Its Potency is “inactive”.

**Q.** Which Potency does the source give for `O=C(C1CCCN(Cc2ccncc2)C1)N1CCc2ccccc2C1` (configuration not stated) here?
**A.** The Potency was inconclusive: 63.1 µM [inhibitor, single point].

**Q.** With `CCN(CC)/C(=N\S(=O)(=O)c1ccccc1C)c1ccccc1` as the molecule, how does the Potency read?
**A.** The Potency was inconclusive: 10 µM [fluorescent, side channel, full curve].

**Q.** Which Potency does the source give for `CCN(CC)c1ccc(N=Cc2ccc([N+](=O)[O-])o2)cc1` here?
**A.** The Potency was “inactive”.

**Q.** With `S=C1Cc2ccccc2C(c2ccc(Cl)cc2)N1` (configuration not stated) as the molecule, how does the Potency read?
**A.** The Potency was inconclusive: 31.6 µM [fluorescent, side channel, partial curve].

**Q.** `O=C(CSc1nnc(-c2cccnc2)n1-c1ccccc1)Nc1ccc2c(c1)OCO2` was tested. Which Potency did it give?
**A.** The Potency was “inactive”.

**Q.** With `CCCCn1nnnc1NCc1ccc(OC)c(OC)c1OC` as the molecule, how does the Potency read?
**A.** The Potency was inconclusive: 89.1 µM [inhibitor, single point].

**Q.** Which Potency does the source give for `N#Cc1ccc(OCC(=O)NCC(c2cccs2)N2CCOCC2)cc1` (configuration not stated) here?
**A.** The Potency was inconclusive: 14.1 µM [fluorescent, side channel, single point].

**Q.** With `Oc1ccc(N=Cc2ccc(O)c(O)c2)cc1` as the molecule, how does the Potency read?
**A.** The Potency was “inactive”.

**Q.** Which Potency does the source give for `Cc1ccc(Sc2ccc(NC(=O)CCl)cc2)cc1C` here?
**A.** The Potency was inconclusive: 1.12 µM [fluorescent, side channel, partial curve, poor fit].

**Q.** `O=C(CNC(=O)c1ccccc1)N/N=C/C=C/c1ccccc1` was tested. Which Potency did it give?
**A.** Its Potency is “inactive”.

**Q.** With `CN(C)c1ccc(/C=C2\SC(=O)N(CC(O)Cn3c4ccccc4c4ccccc43)C2=O)cc1` (configuration not stated) as the molecule, how does the Potency read?
**A.** The Potency was inconclusive: 31.6 µM [fluorescent, side channel, single point].

**Q.** How did the Potency turn out when `COc1ccc2cc(C(N)=O)/c(=N\NC(=O)c3ccccc3)oc2c1` was run?
**A.** The Potency was inconclusive: 1.58 µM [fluorescent, side channel, partial curve, poor fit].

**Q.** How did the Potency turn out when `Cc1cc(C)cc(N(CC(=O)N/N=C/c2ccncc2)S(=O)(=O)c2ccccc2)c1` was run?
**A.** The Potency was “inactive”.

**Q.** `Cc1ccc2nc3sc(C(=O)Nc4c(C)[nH]c(=O)[nH]c4=O)c(N)c3cc2c1` was tested. Which Potency did it give?
**A.** Its Potency is inconclusive: 63.1 µM [fluorescent, side channel, single point].

**Q.** For `Cc1ccc(Nc2nc(-c3cccs3)cs2)nc1`, which Potency is on record?
**A.** Its Potency is inconclusive: 14.1 µM [fluorescent, side channel, single point].

**Q.** How did the Potency turn out when `COc1ccc(/C=N/Nc2cc(C)nc3ccccc23)cc1` was run?
**A.** Its Potency is inconclusive: 25.1 µM [quencher, side channel, partial curve].

**Q.** With `Cc1ccc2[nH]c(O)c(N=Nc3ccccc3C)c2c1` as the molecule, how does the Potency read?
**A.** The Potency was inconclusive: 79.4 µM [fluorescent, side channel, single point].

**Q.** With `COc1ccc(C)cc1Nc1n[n+](-c2ccccc2)c(-c2ccc(SC)cc2)s1` as the molecule, how does the Potency read?
**A.** The Potency was inconclusive: 39.8 µM [quencher, side channel, partial curve].

**Q.** Which Potency does the source give for `O=C(O)c1ccc(N/N=C/C=C/c2ccc([N+](=O)[O-])o2)cc1` here?
**A.** Its Potency is inconclusive: 3.98 µM [fluorescent, side channel, full curve].

**Q.** With `Cc1cc(/C=N/NC(N)=S)c(O)c(/C=N/NC(N)=S)c1` as the molecule, how does the Potency read?
**A.** The Potency was inconclusive: 11.2 µM [fluorescent, side channel, full curve].

**Q.** `CC(C)NCC(O)Cn1c2c(c3ccccc31)CCc1c-2cnn1-c1ccccc1` (configuration not stated) was tested. Which Potency did it give?
**A.** Its Potency is “inactive”.

**Q.** How did the Potency turn out when `CC(=O)OCCCCCCCCCCC[N+]1(C)CCCCC1` was run?
**A.** Its Potency is “inactive”.

**Q.** With `O=c1cnnc(N/N=C/C2CC=CCC2)[nH]1` (configuration not stated) as the molecule, how does the Potency read?
**A.** The Potency was inconclusive: 10 µM [fluorescent, side channel, full curve].

**Q.** For `Clc1ccccc1CSC1=NCCCN1`, which Potency is on record?
**A.** The Potency was inconclusive: 1.41 µM [quencher, side channel, full curve, poor fit].

**Q.** For `Cc1cccc(NC(=O)CSc2cccc3cccnc23)c1C`, which Potency is on record?
**A.** The Potency was “inactive”.

**Q.** How did the Potency turn out when `Cc1[nH]n(-c2ccccc2)c(=O)c1C(c1ccc(C(=O)O)cc1)c1c(C)[nH]n(-c2ccccc2)c1=O` was run?
**A.** The Potency was inconclusive: 56.2 µM [inhibitor, single point].

**Q.** `O=C(CCN1C(=O)C2CCCCC2C1=O)Nc1nc(-c2ccccc2)cs1` (configuration not stated) was tested. Which Potency did it give?
**A.** Its Potency is inconclusive: 3.55 µM [inhibitor, full curve, poor fit].

**Q.** For `Cc1ccccc1N1C(=O)C(Oc2ccc(Cl)cc2)C1CNC(C)(C)C` (configuration not stated), which Potency is on record?
**A.** The Potency was inconclusive: 31.6 µM [quencher, side channel, single point].

**Q.** Which Potency does the source give for `COc1ccc(NC(=O)Cn2nnc(-c3ccccc3NS(=O)(=O)c3ccc(OC)cc3)n2)cc1` here?
**A.** The Potency was inconclusive: 28.2 µM [fluorescent, side channel, partial curve].

**Q.** With `O=C(/C=C/c1ccc(S(=O)(=O)N2CCOCC2)cc1)NC(=S)Nc1ccc(Cl)cc1Cl` as the molecule, how does the Potency read?
**A.** Its Potency is inconclusive: 31.6 µM [inhibitor, partial curve].

**Q.** `COCCCn1c(=O)/c(=C\c2ccccc2OC(C)C)s/c1=C(/C#N)C(=O)Nc1ccc(C(=O)O)cc1` was tested. Which Potency did it give?
**A.** Its Potency is inconclusive: 35.5 µM [fluorescent, side channel, partial curve].

**Q.** Which Potency does the source give for `CCc1ccc(NC(=O)c2onc(C)c2Cl)cc1` here?
**A.** Its Potency is inconclusive: 1.41 µM [quencher, side channel, full curve, poor fit].

**Q.** How did the Potency turn out when `CCCCCC(=O)Nc1nnn(CCC)n1` was run?
**A.** The Potency was inconclusive: 11.2 µM [fluorescent, side channel, partial curve].
